These are yes or no findings as the source states them, for the method shown. Some results given as binding are weak or reduced against the parent protein; the word gives no strength.
Target: human serum albumin (human) (UniProt P02768)
Assay: phage and periprep ELISA on HSA; error-prone PCR library of hE06v1.10

Protein sequences, listed by entry. Tags and fused reporters are not part of them. Residues count along the entry.
UniProt P02768, residues 25-609: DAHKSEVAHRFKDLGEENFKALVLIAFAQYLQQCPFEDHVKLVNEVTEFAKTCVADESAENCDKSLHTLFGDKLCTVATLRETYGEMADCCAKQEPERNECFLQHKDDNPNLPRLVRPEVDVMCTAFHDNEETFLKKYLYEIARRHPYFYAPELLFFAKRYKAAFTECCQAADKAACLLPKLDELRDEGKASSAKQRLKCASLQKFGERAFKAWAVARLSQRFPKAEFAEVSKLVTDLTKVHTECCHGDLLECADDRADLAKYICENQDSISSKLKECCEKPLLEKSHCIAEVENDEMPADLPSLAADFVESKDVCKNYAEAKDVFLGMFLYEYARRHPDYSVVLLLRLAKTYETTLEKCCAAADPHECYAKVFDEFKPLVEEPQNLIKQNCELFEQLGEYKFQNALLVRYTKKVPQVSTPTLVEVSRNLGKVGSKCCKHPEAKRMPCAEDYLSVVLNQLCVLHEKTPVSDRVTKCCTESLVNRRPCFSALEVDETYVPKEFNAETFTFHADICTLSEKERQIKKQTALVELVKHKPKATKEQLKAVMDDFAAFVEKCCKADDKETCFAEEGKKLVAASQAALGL

B1: SEQ ID NO 89 (VNAR)
chain: TRVDQSPSSLSASVGDRVTITCVLTDTSYPLYSTYWYRKNPGSSNKEQISISGRYSESVNKGTKSFTLTISSLQPEDFATYYCRAMGTNLWTGDGA
Q: For B1, which binding is on record?
A: The binding was “binds”.
